PubChem BioAssay AID686938, Drosophila RNAi Screening Center – 2013

Test: 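Fly genes required for calcium entry once internal stores are emptied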 (primary screen)
Cell system: Drosophila S2R+ cells
Reagents: long dsRNA against Drosophila genes, about 0.25 µg dsRNA per well, roughly 10,000 cells
Duration: 5 days of knock-down before the calcium assay
Challenge: thapsigargin (SERCA pump blocker) to empty calcium stores; entry signal taken 4 min after adding it
Detection: 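Per-well fluo-4 fluorescence in two replicates, unnormalised, measured in resting cells and 4 min after store depletion by the SERCA blocker thapsigargin; ratio of the two present in few wells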
Reading the numbers: calcium entry signal: higher = stronger calcium signal after store depletion; entry to resting ratio: higher = more calcium entry relative to resting level; resting calcium signal: higher = higher resting calcium signal
Call rule: 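Called when the plate z-score of the entry-to-rest ratio, mean of duplicates, falls below −3; wells with low overall dye signal (Fmax z below −2) or more than five off-targets excluded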
Meaning of the calls: active = strongly reduced calcium entry; inactive = no strong reduction
The screen tested about 23,000 reagents; shown is a random part of those with a known target gene and a result. Over the whole deposit, 75 (0.33%) are marked active. 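Raw plate signals without normalisation; calls rest on plate z-scores that were not deposited; ratio present for only 364 wells.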 Entries without a mark were called inactive. Reagents against one gene are numbered here. A plus sign joins genes that one reagent is predicted to hit. Reagent sequences are not shown. Not stated in the record: the dose of the treatment.

target gene | reagent | calcium entry signal, replicate 1 (fluorescence units) | calcium entry signal, replicate 2 (fluorescence units) | entry to resting ratio | resting calcium signal, replicate 1 (fluorescence units) | resting calcium signal, replicate 2 (fluorescence units)
His1:CG33816 + His1:CG33828 + His1:CG33819 + 21 more | 1 | 3.56e7 | 3.65e7 | – | 1.82e7 | 1.70e7
CG31233 | 1 | 4.55e7 | 4.13e7 | – | 5.16e7 | 1.87e7
E(Pc) (Enhancer of Polycomb) | 1 | 6.18e7 (active) | 9.44e7 | – | 3.97e7 | 6.44e7
E(Pc) (Enhancer of Polycomb) | 2 | 2.94e7 (active) | 5.05e7 | – | 1.97e7 | 3.49e7
UQCR-C1 (Ubiquinol-cytochrome c reductase core protein 1) | 1 | 3.44e7 | 4.11e7 | – | 1.66e7 | 2.06e7
CG9649 | 1 | 3.61e7 | 3.79e7 | – | 1.57e7 | 1.78e7
CG9485 | 1 | 4.08e7 | – | – | 1.94e7 | –
PVRAP (PVR adaptor protein) | 1 | 1.81e7 | 3.04e7 | – | 9.21e6 | 1.20e7
PVRAP (PVR adaptor protein) | 2 | 1.66e7 | 2.85e7 | – | 8.09e6 | 1.30e7
mRpL49 (mitochondrial ribosomal protein L49) | 1 | 4.18e7 | 4.98e7 | – | 1.93e7 | 2.25e7
Cyp6a18 (Cytochrome P450 6a18) | 1 | 4.00e7 | 5.27e7 | – | 1.98e7 | 2.04e7
Ir7c (Ionotropic receptor 7c) | 1 | 3.32e7 | 3.12e7 | – | 1.59e7 | 1.41e7
Kaz (Katazuke) | 1 | 3.22e7 | 3.78e7 | – | 1.51e7 | 1.84e7
DIP-gamma (Dpr-interacting protein gamma) | 1 | 3.53e7 | 3.00e7 | – | 1.49e7 | 1.35e7
koi (klaroid) | 1 | 2.70e7 | 2.78e7 | – | 1.21e7 | 1.19e7
koi (klaroid) | 2 | 2.80e7 | 3.18e7 | – | 1.19e7 | 1.41e7
dpr10 (defective proboscis extension response 10) | 1 | 3.48e7 | 4.20e7 | – | 1.80e7 | 1.91e7
dpr10 (defective proboscis extension response 10) | 2 | 3.12e7 | 3.83e7 | – | 1.68e7 | 1.84e7
dpr10 (defective proboscis extension response 10) | 3 | 3.60e7 | 3.76e7 | – | 1.85e7 | 1.72e7
dpr10 (defective proboscis extension response 10) | 4 | 3.54e7 | 3.36e7 | – | 1.78e7 | 1.50e7
D12 | 1 | 3.91e7 | – | – | 2.41e7 | –
mRpL3 (mitochondrial ribosomal protein L3) | 1 | 3.93e7 | 3.73e7 | – | 1.90e7 | 1.76e7
CG34316 + asRNA:CR43471 | 1 | 4.03e7 | 4.23e7 | – | 2.26e7 | 1.81e7
Ddc (Dopa decarboxylase) | 1 | 4.99e7 | 6.12e7 | – | 2.30e7 | 2.41e7
CG3430 | 1 | 3.83e7 | – | – | 2.24e7 | –
Ctps (CTP synthase) | 1 | 4.00e7 | 4.31e7 | – | 1.88e7 | 2.24e7
Ctps (CTP synthase) | 2 | 3.93e7 | 4.49e7 | – | 1.91e7 | 3.06e7
Ctps (CTP synthase) | 3 | 3.94e7 | 4.86e7 | – | 2.20e7 | 2.12e7
CG5882 | 1 | 3.87e7 | 5.80e7 | – | 2.00e7 | 2.50e7
nac (neuronally altered carbohydrate) | 1 | 4.64e7 | 3.37e7 | – | 2.08e7 | 1.74e7
CG9799 | 1 | 2.46e7 | 3.48e7 | – | 1.13e7 | 1.77e7
escl | 1 | 4.44e7 | – | – | 1.95e7 | –
Leash | 1 | 4.13e7 | 4.14e7 | – | 2.00e7 | 2.14e7
CG42284 | 1 | 3.91e7 | 8.45e7 | – | 1.80e7 | 3.80e7
CG42284 | 2 | 3.48e7 | 5.86e7 | – | 1.68e7 | 2.92e7
CG15262 | 1 | 3.95e7 | 2.29e7 | – | 1.72e7 | 1.19e7
COX5A (Cytochrome c oxidase subunit 5A) | 1 | 5.31e7 | 4.35e7 | – | 2.64e7 | 2.07e7
Srlp (Spliceosome-ribosome linker protein) | 1 | 2.64e7 | 2.63e7 | – | 1.71e7 | 1.74e7
CG11857 | 1 | 4.33e7 | 6.11e7 | – | 2.75e7 | 3.46e7
brwl (brickwall) | 1 | 3.73e7 | 3.18e7 | – | 1.89e7 | 1.43e7
brwl (brickwall) | 2 | 4.41e7 | – | – | 2.07e7 | –
CG42336 | 1 | 4.39e7 | 5.56e7 | – | 2.32e7 | 2.65e7
CG42336 | 2 | 2.40e7 | 4.17e7 | – | 1.32e7 | 1.78e7
CG42336 | 3 | 2.32e7 | 4.17e7 | – | 1.25e7 | 2.18e7
MFS16 (Major Facilitator Superfamily Transporter 16) | 1 | 3.78e7 | 4.63e7 | – | 1.83e7 | 1.95e7
CG4743 | 1 | 4.05e7 | 5.47e7 | – | 1.98e7 | 2.40e7
Or67b (Odorant receptor 67b) | 1 | 2.99e7 | 3.92e7 | – | 1.50e7 | 1.78e7
CG34198 | 1 | 2.72e7 | 3.14e7 | – | 1.37e7 | 1.58e7
CG18568 | 1 | 3.03e7 | 2.88e7 | – | 1.34e7 | 1.44e7
ms(3)76Ba (male sterile (3) 76Ba) | 1 | 2.34e7 | 4.05e7 | – | 1.13e7 | 1.85e7
CG12780 | 1 | 4.41e7 | 4.36e7 | – | 2.27e7 | 1.85e7
GstD8 (Glutathione S transferase D8) | 1 | 3.29e7 | 3.65e7 | – | 1.60e7 | 1.90e7
CG17883 | 1 | 3.36e7 | 4.48e7 | – | 1.77e7 | 2.01e7
CG4658 | 1 | 3.61e7 | 4.37e7 | – | 1.62e7 | 1.80e7
CG12164 | 1 | 4.34e7 | – | – | 2.20e7 | –
CG12164 | 2 | 4.14e7 | 3.79e7 | – | 2.31e7 | 1.86e7
CG17778 | 1 | 3.30e7 | 2.45e7 | 2.5 | 1.34e7 | 1.09e7
Agpat1 (1-Acylglycerol-3-phosphate O-acyltransferase 1) | 1 | 3.22e7 | 4.58e7 | – | 1.70e7 | 2.18e7
Agpat1 (1-Acylglycerol-3-phosphate O-acyltransferase 1) | 2 | 2.69e7 | 4.38e7 | – | 1.35e7 | 1.99e7

6 of these entries in another layout.
target gene,reagent,"calcium entry signal, replicate 1 (fluorescence units)","calcium entry signal, replicate 2 (fluorescence units)",entry to resting ratio,"resting calcium signal, replicate 1 (fluorescence units)","resting calcium signal, replicate 2 (fluorescence units)"
D12,1,3.91e7,,,2.41e7,
mRpL3 (mitochondrial ribosomal protein L3),1,3.93e7,3.73e7,,1.90e7,1.76e7
CG34316 + asRNA:CR43471,1,4.03e7,4.23e7,,2.26e7,1.81e7
Ddc (Dopa decarboxylase),1,4.99e7,6.12e7,,2.30e7,2.41e7
CG3430,1,3.83e7,,,2.24e7,
Ctps (CTP synthase),1,4.00e7,4.31e7,,1.88e7,2.24e7
